Assay results: article PMC10412574

By UniProt entry, the sequences of proteins in these tests, tags left out.
UniProt P22314: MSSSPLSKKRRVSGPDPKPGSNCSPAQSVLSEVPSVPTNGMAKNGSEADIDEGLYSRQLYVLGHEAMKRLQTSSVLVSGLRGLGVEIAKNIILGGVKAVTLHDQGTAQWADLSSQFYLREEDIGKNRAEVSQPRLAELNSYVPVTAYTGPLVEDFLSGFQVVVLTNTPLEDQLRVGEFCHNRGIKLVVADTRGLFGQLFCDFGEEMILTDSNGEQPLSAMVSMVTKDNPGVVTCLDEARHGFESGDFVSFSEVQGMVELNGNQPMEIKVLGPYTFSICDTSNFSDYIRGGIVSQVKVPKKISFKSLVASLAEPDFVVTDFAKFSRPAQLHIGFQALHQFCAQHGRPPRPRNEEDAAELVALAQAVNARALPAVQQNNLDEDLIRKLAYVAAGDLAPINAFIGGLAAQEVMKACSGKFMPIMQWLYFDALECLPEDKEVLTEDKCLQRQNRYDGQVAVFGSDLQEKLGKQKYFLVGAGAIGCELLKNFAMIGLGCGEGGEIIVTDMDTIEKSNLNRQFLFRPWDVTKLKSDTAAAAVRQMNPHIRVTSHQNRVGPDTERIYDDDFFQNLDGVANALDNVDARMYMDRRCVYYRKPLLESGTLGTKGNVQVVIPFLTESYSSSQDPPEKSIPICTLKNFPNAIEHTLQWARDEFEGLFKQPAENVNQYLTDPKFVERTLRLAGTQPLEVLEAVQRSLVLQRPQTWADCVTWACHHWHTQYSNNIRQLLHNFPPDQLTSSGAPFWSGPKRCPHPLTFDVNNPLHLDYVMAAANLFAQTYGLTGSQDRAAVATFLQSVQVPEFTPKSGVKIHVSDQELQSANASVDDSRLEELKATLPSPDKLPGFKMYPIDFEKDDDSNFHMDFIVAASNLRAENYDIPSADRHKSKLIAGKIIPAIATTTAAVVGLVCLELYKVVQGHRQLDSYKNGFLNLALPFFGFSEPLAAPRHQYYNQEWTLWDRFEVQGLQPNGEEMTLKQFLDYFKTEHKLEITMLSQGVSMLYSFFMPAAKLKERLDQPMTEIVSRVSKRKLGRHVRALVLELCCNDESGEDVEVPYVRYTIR
UniProt P61086: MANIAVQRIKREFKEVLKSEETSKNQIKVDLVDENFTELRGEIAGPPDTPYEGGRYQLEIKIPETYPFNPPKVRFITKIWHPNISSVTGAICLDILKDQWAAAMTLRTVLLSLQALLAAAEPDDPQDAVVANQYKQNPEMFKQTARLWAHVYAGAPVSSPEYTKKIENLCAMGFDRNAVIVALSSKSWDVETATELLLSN
UniProt P61081: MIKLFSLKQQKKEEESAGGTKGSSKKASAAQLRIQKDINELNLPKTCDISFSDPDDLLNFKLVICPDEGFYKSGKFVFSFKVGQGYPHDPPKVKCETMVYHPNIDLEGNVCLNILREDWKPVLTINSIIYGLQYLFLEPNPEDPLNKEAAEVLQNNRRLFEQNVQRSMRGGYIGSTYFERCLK

Biological target: HA-UBA1 (human) (UniProt P22314)
Experiment: affinity purification with mass spectrometry; HA-UBA1 transiently expressed in 293 T cells, AF or DMSO; anti-HA IP, on-beads digestion, label-free quantitative mass spectrometry; two experiments in quadruplicate

binding | Substance
binds | endogenous UBE2K (from UniProt P61086 1-200) (enzyme)
binds | endogenous UBE2M (from UniProt P61081 1-183) (enzyme)

Results are given in words; binding and its absence hold for the method and conditions named. Binding seen in cells or lysates may run through a third protein. Here binding means that the protein was enriched with, or labelled near, the bait; the list need not be complete.
